Some of the results follow. These are further read-outs of the screen, such as a control signal, another cell line or another target. No call is given for them. Compounds called inactive in the main read-out are mostly missing here. Words in brackets tell the shape of the fitted curve; partial curves, single points and poor fits give uncertain potencies.
Assay: qHTS Assay for Modulators of Lamin A Splicing
Conditions: HeLa LMNA splicing GFP/RFP minigene ratio, 48 h
How it was run: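 S3 HeLa cells stably expressing lamin A-EGFP splicing minigene plus DsRed2, 600 cells/well, 48 h compound exposure at 37C. Laser-scanning cytometry; analysed as GFP (500-530 nm)/RFP (575-640 nm) total intensity ratio; 0.5% DMSO vehicle.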

[1] = measured here: GFP splicing reporter channel
[2] = measured here: RFP viability control channel

SMILES | AC50 [1] | AC50 [2]
CCOc1ccccc1CNC(=O)Cn1nc(C)c2nn(-c3ccc(Cl)cc3)c(C)c2c1=O | 0.562 µM [rising, full curve] | –
Cc1ccc(Sc2ccc(/C=N/O)cc2[N+](=O)[O-])cc1 | 10 µM [rising, partial curve, poor fit] | 22.4 µM [rising, partial curve]
CCOC(=O)c1ccc(NC(=O)CCc2nc(-c3ccc(Cl)cc3)no2)cc1 | 14.1 µM [rising, single point] | 25.1 µM [rising, single point]
COc1cc(/C=N/N2CCN(C3c4ccccc4-c4ccccc43)CC2)ccc1O | – | 35.5 µM [rising, single point]
COc1ccccc1Nc1nc2ccccc2n1C | – | 35.5 µM [rising, single point]
Cc1cc(OCC(=O)NCCN2CCOCC2)cc(C)c1Br | 14.1 µM [rising, single point] | 14.1 µM [rising, single point]
Cc1ccc(N2C(=O)C3CCC(c4ccccc4)CC3C2=O)cc1 (stereo unspecified) | 6.31 µM [rising, partial curve] | 11.2 µM [rising, partial curve]
CN(c1ccccc1)S(=O)(=O)c1cccc(NC(=O)Cn2cnc3ccccc3c2=O)c1 | – | 20 µM [rising, single point]
CCNS(=O)(=O)c1ccc(NC(=O)c2ccc(Cn3cc(Br)cn3)o2)cc1 | 12.6 µM [rising, partial curve] | 12.6 µM [rising, partial curve]
N=c1n(CCN2CCCC2)c2ccccc2n1CC(O)c1ccc(Cl)c(Cl)c1 (stereo unspecified) | 10 µM [falling, single point] | –
Nc1c(-c2ccccn2)cnn1-c1nc(-c2ccc(F)cc2)cs1 | – | 35.5 µM [falling, single point]
CCOC(=O)c1cnc(-n2nc(C)cc2C)nc1NNc1cc(C)nc(-c2ccccc2)n1 | – | 11.2 µM [rising, partial curve, poor fit]
C=CCN(CC=C)C(=O)C1CC(=O)N(c2ccc(Br)cc2)C1 (stereo unspecified) | 35.5 µM [rising, single point] | –
Cc1cccc(C)c1OCc1nc2ccccc2c(=O)n1/N=C/c1c[nH]c2ccccc12 | 35.5 µM [falling, single point] | –
CC(C)CNC(=O)COc1ccc2c3c(c(=O)oc2c1)CCC3 | 0.562 µM [falling, full curve] | 0.708 µM [falling, full curve]
CCCCCCCCCCCCCCCCCC(=O)NCC(COP(=O)([O-])OCC[N+](C)(C)C)OCC (stereo unspecified) | 6.31 µM [falling, full curve] | 5.62 µM [falling, full curve]
Cc1cc(C)c(C)c(S(=O)(=O)N2CCC(C(=O)Nc3ccccc3N3CCOCC3)CC2)c1C | 14.1 µM [rising, single point] | 31.6 µM [rising, single point]
Cc1c(Cl)ccc2c1NC(=O)[C@]21N[C@@H](CCC(N)=O)[C@H]2C(=O)N(c3ccc(F)cc3)C(=O)[C@H]21 | 12.6 µM [falling, partial curve, poor fit] | 14.1 µM [falling, single point]
CCCn1cnc2cc(NCc3cccc(OC)c3O)ccc21 | 0.00447 µM [rising, full curve, poor fit] | 3.98 µM [rising, full curve, poor fit]
O=C(O)Cc1csc(-c2ccc(F)cc2)n1 | – | 0.0631 µM [falling, full curve, poor fit]
CCOC(=O)c1c(CC(C)C)csc1NC=O | 35.5 µM [falling, single point] | 35.5 µM [falling, single point]
O=C(CSc1nnnn1Cc1ccccc1)NC1CCCCC1 | 12.6 µM [rising, partial curve, poor fit] | –
COc1ccccc1/C=C/C(=O)NC(=S)NC(C)C | – | 35.5 µM [rising, single point]
Cc1ccc(NC(=S)/N=C(\N)Nc2nc(C)c3cc(C)c(C)cc3n2)cc1C | 7.94 µM [falling, partial curve] | –
COc1cc(/C=C/CN2CCN(Cc3ccc(C)o3)C(CCO)C2)ccc1O (stereo unspecified) | 0.178 µM [rising, partial curve, poor fit] | 0.891 µM [rising, single point]
CNC(=S)N1CCc2cc(OC)c(OC)cc2C1COc1ccc(OC)cc1 (stereo unspecified) | 0.282 µM [rising, full curve, poor fit] | –
CC1(C)Cc2c(c(N3CCOCC3)nc3sc4c(NN)ncnc4c23)CS1 | – | 11.2 µM [rising, single point]

14 entries from above, arranged by count of non-hydrogen atoms, largest number first:
SMILES | AC50 [1] | AC50 [2]
CCCCCCCCCCCCCCCCCC(=O)NCC(COP(=O)([O-])OCC[N+](C)(C)C)OCC (stereo unspecified) | 6.31 µM [falling, full curve] | 5.62 µM [falling, full curve]
Cc1cc(C)c(C)c(S(=O)(=O)N2CCC(C(=O)Nc3ccccc3N3CCOCC3)CC2)c1C | 14.1 µM [rising, single point] | 31.6 µM [rising, single point]
Cc1c(Cl)ccc2c1NC(=O)[C@]21N[C@@H](CCC(N)=O)[C@H]2C(=O)N(c3ccc(F)cc3)C(=O)[C@H]21 | 12.6 µM [falling, partial curve, poor fit] | 14.1 µM [falling, single point]
CN(c1ccccc1)S(=O)(=O)c1cccc(NC(=O)Cn2cnc3ccccc3c2=O)c1 | – | 20 µM [rising, single point]
COc1cc(/C=N/N2CCN(C3c4ccccc4-c4ccccc43)CC2)ccc1O | – | 35.5 µM [rising, single point]
Cc1ccc(NC(=S)/N=C(\N)Nc2nc(C)c3cc(C)c(C)cc3n2)cc1C | 7.94 µM [falling, partial curve] | –
CCNS(=O)(=O)c1ccc(NC(=O)c2ccc(Cn3cc(Br)cn3)o2)cc1 | 12.6 µM [rising, partial curve] | 12.6 µM [rising, partial curve]
Nc1c(-c2ccccn2)cnn1-c1nc(-c2ccc(F)cc2)cs1 | – | 35.5 µM [falling, single point]
CC(C)CNC(=O)COc1ccc2c3c(c(=O)oc2c1)CCC3 | 0.562 µM [falling, full curve] | 0.708 µM [falling, full curve]
C=CCN(CC=C)C(=O)C1CC(=O)N(c2ccc(Br)cc2)C1 (stereo unspecified) | 35.5 µM [rising, single point] | –
Cc1ccc(Sc2ccc(/C=N/O)cc2[N+](=O)[O-])cc1 | 10 µM [rising, partial curve, poor fit] | 22.4 µM [rising, partial curve]
COc1ccccc1/C=C/C(=O)NC(=S)NC(C)C | – | 35.5 µM [rising, single point]
CCOC(=O)c1c(CC(C)C)csc1NC=O | 35.5 µM [falling, single point] | 35.5 µM [falling, single point]
O=C(O)Cc1csc(-c2ccc(F)cc2)n1 | – | 0.0631 µM [falling, full curve, poor fit]

Later entries.

SMILES | AC50 [1] | AC50 [2]
NS(=O)(=O)c1ccc(NC(=O)COC(=O)c2ccc(Cl)nc2)cc1 | – | 4.47 µM [falling, full curve]
Cc1sc2nc(C(C)Nc3ccccc3N3CCOCC3)[nH]c(=O)c2c1C (stereo unspecified) | – | 22.4 µM [rising, single point]
COc1ccc(C)cc1S(=O)(=O)N(CC(=O)NCc1ccc(Cl)cc1)Cc1ccccc1 | – | 10 µM [rising, single point]
OCCC1CN(Cc2ccc(Oc3ncccn3)cc2)CCN1CCc1ccccc1 (stereo unspecified) | – | 1.12 µM [falling, partial curve, poor fit]
Cc1nn(-c2ccccc2)c(Cl)c1C(=O)Nc1nnc(C2CCCC2)s1 | – | 12.6 µM [rising, partial curve]
CCN1C(=O)C(O)(C2COC(C)(C)CC2=O)c2cc(Br)ccc21 (stereo unspecified) | 8.91 µM [falling, partial curve] | 12.6 µM [falling, single point]
COc1ccc2c(c1)C1(Nc3ccccc3-c3nc4ccccc4n31)C(=O)N2C (stereo unspecified) | 35.5 µM [rising, single point] | 35.5 µM [rising, single point]
CC(C)(C)c1nn2cnnc2n(/N=C/c2ccccc2)c1=O | – | 2.51 µM [rising, full curve, poor fit]
Cc1ccc(S(=O)(=O)Cc2ccc(C(=O)N3CCN(c4cc(C)ccc4C)CC3)o2)cc1 | – | 35.5 µM [rising, single point]
NCCCCCCNS(=O)(=O)c1cccc2c(Cl)cccc12 | 35.5 µM [falling, single point] | 35.5 µM [falling, single point]
N#Cc1ncc(-c2ccc3c(c2)OCCOCCOCCOCCOCCO3)nc1C#N | 35.5 µM [rising, single point] | 35.5 µM [rising, single point]
COc1ccccc1-c1nnc(NC(=O)c2ccc3c(c2)OCO3)s1 | 35.5 µM [falling, single point] | 3.98 µM [rising, single point]
CC1(C)CC(=O)C2=C(C1)NC(Nc1nc3ccccc3o1)=NC2c1ccccn1 (stereo unspecified) | – | 31.6 µM [falling, partial curve]
COc1ccc(C)cc1NC(=O)C(CCSC)NS(=O)(=O)c1ccc2c(c1)oc(=O)n2C (stereo unspecified) | – | 0.0501 µM [falling, full curve, poor fit]
COc1cc2c(cc1OC)C(C)N(C(=O)c1cc3c(s1)-c1c(C)cccc1OC3)CC2 (stereo unspecified) | 7.94 µM [rising, partial curve] | 12.6 µM [rising, partial curve]
COc1ccccc1OCc1nc(-c2ccc([N+](=O)[O-])cc2)no1 | 12.6 µM [rising, single point] | 20 µM [rising, single point]
CCOC(=O)c1c(C)[nH]c(CCC(=O)Nc2ccc(N(CC)CC)cc2C)c1C | – | 35.5 µM [rising, partial curve, poor fit]
O=C(N=C1N=C2C=CC=CN2Cc2ccccc21)c1ccc(S(=O)(=O)N2CCOCC2)cc1 | 5.01 µM [falling, full curve, poor fit] | 8.91 µM [falling, partial curve, poor fit]
O=C(N/N=C/c1sc2ccccc2c1O)c1ccccc1 | – | 20 µM [rising, partial curve, poor fit]
CN1CC[C@H](CN2c3ccccc3Sc3ccccc32)C1 | 0.0178 µM [falling, full curve, poor fit] | 3.16 µM [rising, partial curve, poor fit]
CCCC(=O)Nc1ccc(C(=O)Nc2cccc(OC)c2)cc1 | 5.62 µM [rising, partial curve, poor fit] | 12.6 µM [rising, single point]
O=C1C=C(c2ccccc2)OC(c2ccccc2)O1 (stereo unspecified) | – | 35.5 µM [falling, partial curve, poor fit]
Cc1ccc(C2C(C#N)=C(N)SC(N)=C2C#N)o1 | – | 35.5 µM [falling, single point]
Cc1ccc(NC(=O)C(Nc2cccc(C)c2)c2ccccc2)cc1 (stereo unspecified) | – | 17.8 µM [rising, single point]
Cc1ccc2nc(SC(Cc3cc(Cl)ccc3Cl)C(=O)O)[nH]c2c1 (stereo unspecified) | 39.8 µM [falling, partial curve, poor fit] | –
Cc1cc(Cl)ccc1NC(=O)C1CCN(S(=O)(=O)c2ccc3[nH]c(=O)ccc3c2)CC1 | – | 0.708 µM [falling, full curve, poor fit]
Cc1ccc(NC(=S)NCC(C)CSc2ccc(Cl)cc2)cc1 (stereo unspecified) | – | 35.5 µM [falling, single point]

Part of the list above, comma-delimited.
SMILES,AC50 [1],AC50 [2]
Cc1sc2nc(C(C)Nc3ccccc3N3CCOCC3)[nH]c(=O)c2c1C (stereo unspecified),–,"22.4 µM [rising, single point]"
CC(C)(C)c1nn2cnnc2n(/N=C/c2ccccc2)c1=O,–,"2.51 µM [rising, full curve, poor fit]"

From PubChem BioAssay AID1487 (National Center for Advancing Translational Sciences (NCATS), 2009)
